In PubChem BioAssay AID2551 (National Center for Advancing Translational Sciences (NCATS), 2010):
The campaign covered roughly 310,000 compounds. About 17,000 (5.5%) were called active. The inconclusive results got no clear call from the source; some entries with a clear call stand among them for comparison. Calls come from the whole dose curve; as a rule, active = well fitted inhibition curve with a large enough effect; inconclusive = small, poorly fitted or top-dose-only effect, or effect the other way; inactive = no such curve, though single readings can be large or run the other way. Potencies beside an inconclusive call are fits to weak or partial responses and may not hold up.

The chains behind the UniProt entries cited, without tags or fusion partners. Where a name states a change or a piece, a line headed by the entry shows the natural chain unless it says otherwise.
UniProt P51450: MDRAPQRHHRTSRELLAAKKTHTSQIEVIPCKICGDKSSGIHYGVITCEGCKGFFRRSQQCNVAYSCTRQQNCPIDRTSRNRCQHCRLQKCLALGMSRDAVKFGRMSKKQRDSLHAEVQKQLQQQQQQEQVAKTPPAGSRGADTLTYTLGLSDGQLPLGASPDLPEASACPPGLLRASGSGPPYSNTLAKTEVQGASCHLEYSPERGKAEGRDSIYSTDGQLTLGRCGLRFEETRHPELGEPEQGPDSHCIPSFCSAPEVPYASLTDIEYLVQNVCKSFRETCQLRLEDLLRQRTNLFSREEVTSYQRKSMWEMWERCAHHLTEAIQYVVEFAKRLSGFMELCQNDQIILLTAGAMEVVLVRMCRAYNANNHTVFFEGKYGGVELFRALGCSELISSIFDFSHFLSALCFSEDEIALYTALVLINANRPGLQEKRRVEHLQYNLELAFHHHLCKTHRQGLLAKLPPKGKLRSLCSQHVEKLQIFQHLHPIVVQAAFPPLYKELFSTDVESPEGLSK

These molecules were tested against Nuclear receptor ROR-gamma (Mus musculus) (UniProt P51450) (assay: qHTS for inhibitors of ROR gamma transcriptional activity). Conditions: Drosophila S2 Gal4-RORgamma UAS-luciferase reporter, 20 h; activity change, negative = inhibition: at 53.6 µM (top of the series).
Method in brief: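 Compounds are pin-transferred onto Drosophila Schneider cells expressing a copper-inducible Gal4–ROR gamma transactivation domain fusion. After 1 hr, copper sulfate is added to 700 uM final; luciferase is read 20 hr later.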
% is set by controls: 0 for no effect and ±100 for the full control effect; potency is the fitted concentration of half-maximal effect.
Note: nearly all actives have a fitted effect of over 60% in size.

Potency, active:
COCCCNC(=S)N/N=C/c1ccc(OC)c(Br)c1 1 µM, O=C(O)c1ccc(Nc2nc3c(s2)CCCC3)cc1 1.26 µM, O=C(CC(Nc1ccc(Cl)cc1)C(=O)O)c1ccccc1 (centres undefined) 5.01 µM, COc1cccc(/C=N/NC(=O)Cn2nc(C)c([N+](=O)[O-])c2C)c1O 0.355 µM, CCOc1ccc(-n2nc3ccc(NC(=O)c4ccc5c(c4)OCCO5)cc3n2)cc1 10 µM, O=[N+]([O-])c1ccc(Nc2nc(N/N=C\c3ccc4c(c3)OCO4)nc(N3CCCCC3)n2)cc1 4.47 µM, CC(=O)Oc1ccc(-c2csc(Nc3cccc(C)n3)n2)cc1 3.16 µM, CCOc1ccccc1NC(=O)C1=C(C)NC(=S)NC1c1cccs1 (centres undefined) 6.31 µM, CCCc1ccc(-c2cc(C(=O)N/N=C/c3ccc([N+](=O)[O-])o3)c3ccccc3n2)cc1 7.08 µM, O=C(NNC(=S)Nc1ccc(Br)cc1)c1cccnc1 10 µM, O=C(CN1C(=O)/C(=C\c2ccccc2F)SC1=S)Nc1nc2ccccc2s1 11.2 µM, CC1CN(C(=S)Nc2ccccc2)N(c2ccccc2)C1 (centres undefined) 11.2 µM, O=C(COc1ccccc1F)c1ccc(O)cc1O 3.16 µM

Potency, inconclusive:
COc1ccc(N2C(=O)CC(SCc3ccc(Cl)cc3)C2=O)cc1 (centres undefined) 35.5 µM [activator, single point], CCc1ccc(Nc2ncccc2C#N)cc1 12.6 µM [activator, partial curve], COC(=O)C1C(=O)NC(SC)=C(C#N)C1c1ccccc1F (centres undefined) 3.98 µM [inhibitor, single point], O=C1OC(NC(=O)c2ccccc2)C(n2cc(CO)nn2)=C1Cl (centres undefined) 35.5 µM [inhibitor, single point], COC1OC(CO)C(O)C(O)C1O (centres undefined) 0.708 µM [inhibitor, single point], O=C(C1Cc2ccccc2O1)N1CCCCC1 (centres undefined) 11.2 µM [activator, single point], NC(=O)CSc1nnc2sc3ccccc3n12 20 µM [inhibitor, single point], CCC1(C)OCC(Cn2c3ccccc3c3ccccc32)O1 (centres undefined) 31.6 µM [activator, single point], Cc1ccc(S(=O)(=O)CCC(=O)OCC(=O)c2c(C)[nH]c3ccccc23)cc1 10 µM [activator, partial curve], Cc1ccc(NC(=O)c2ccc(OC(F)F)cc2)cc1S(=O)(=O)N(C)C 11.2 µM [activator, partial curve], Oc1c(C=NCc2ccccc2)sc2ccccc12 12.6 µM [inhibitor, single point], Cc1ccc(F)c(C2C3C=CCC(c4ccccc4)C3C(=O)N2Cc2ccccc2)c1 (centres undefined) 35.5 µM [inhibitor, single point], COc1ccc(/C(C)=N/Nc2ccc(F)cc2F)c(O)c1 7.08 µM [activator, partial curve], C/C(=N\NC(=O)COc1ccc(C#N)cc1)c1ccc(N2CCOCC2)cc1 35.5 µM [activator, single point], CCOc1ccc(C(=O)Nc2ccc3[nH]ncc3c2)cc1 14.1 µM [inhibitor, single point], CCN(CC(=O)NCc1ccc(F)cc1)C(=O)/C=C/c1cc(OC)ccc1OC 17.8 µM [activator, single point], CCNC(=S)NNC(=O)CCn1c2ccccc2c2ccccc21 1.41 µM [inhibitor, full curve], CS(=O)(=O)c1cnc2c(-c3ccsc3)cnn2c1N 25.1 µM [inhibitor, single point], CCOC(=O)c1c(N)sc(C(O)(C(F)(F)F)C(F)(F)F)c1-c1ccc(Cl)cc1 35.5 µM [inhibitor, single point], COc1ccc(N2C(S)=C(C#N)C(=O)NC23CCCCC3)cc1 28.2 µM [inhibitor, single point], Nc1nc(-c2ccc(-c3ccccc3)cc2)cs1 35.5 µM [inhibitor, single point], CCc1cc(C(=O)NC2CCCN(Cc3ccccc3F)C2)n(C)n1 (centres undefined) 12.6 µM [activator, single point], CCCc1cc(=O)n2[nH]c(-c3ccc(OC)cc3)nc2n1 35.5 µM [activator, single point], Cc1ccccc1Nc1nc(-c2cccnc2)nc2ccccc12 22.4 µM [activator, partial curve, poor fit], COc1ccccc1OCC(=O)Nc1sc2c(c1C(=O)NCC1CCCO1)CCC2 (centres undefined) 0.891 µM [activator, full curve], O=C(C1CCC1)N1CCc2cc(S(=O)(=O)NCC3COc4ccccc4O3)ccc21 (centres undefined) 17.8 µM [inhibitor, partial curve]

Potency, inactive:
CCOC(=O)C1(CCOc2ccccc2)CCN(C(=O)c2ccc(-n3cccn3)cc2)CC1, Cc1ccc2c(c1)NC(=O)C(CC(=O)Nc1ccc(Br)c(C)c1)O2 (centres undefined), Cc1ccccc1NC(=O)Cc1nc(COC(=O)CNS(=O)(=O)c2cccc(Br)c2)cs1, OC(COc1ccc2cc(Br)ccc2c1)CN1CCCC1 (centres undefined), CCC(C)c1ccc(NC(=O)c2cccnc2)cc1 (centres undefined), CC(C)n1nnnc1SCC(=O)Nc1cccc(F)c1, CC(=O)N(c1ccccc1)C1CCCC1, C[C@H](NC(N)=O)C(=O)Nc1ccc2c(c1)OCO2, O=C(CNCc1ccc(F)cc1)Nc1ccccc1[N+](=O)[O-]

Activity change, negative = inhibition, inactive:
COC(=O)[C@@H]1CC[C@H](C)[C@@H](c2ccc(C)cc2)N1C(=O)c1ccc(/C=N\OC[C@@H]2O[C@H](c3ccccc3)C=C[C@@H]2Oc2ccc(OC)cc2)cc1 19.1% [at 10 µM]
